Laboratory results: US20220098591
The exact form of at least one protein or probe is not confirmed.

Sequences of proteins named here, by UniProt entry; tags and fusion partners are left off. A line that says so, or that is headed by a name, gives the form on record, which may keep a tag or linker.
UniProt P15692, other isoform, or with tags, fused parts or gaps: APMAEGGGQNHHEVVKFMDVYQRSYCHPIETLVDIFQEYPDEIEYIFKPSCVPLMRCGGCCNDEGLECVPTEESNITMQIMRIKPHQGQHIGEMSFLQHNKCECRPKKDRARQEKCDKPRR

Columns and labels:
[1] = biological target: VEGF-A121 (Homo sapiens) (UniProt P15692); assay: activity in cells; conditions: 2'-F G, 2'-OMe A,C,U, 5' C6NH2, 3' idT, KDR phosphorylation, VEGF-A isoform not stated for this column, purified recombinant protein, dose not given here
[2] = biological target: VEGF-A121 (Homo sapiens) (UniProt P15692); assay: flow cytometry; conditions: all G 2'-F; all A,C,U 2'-OMe; 5' C6SS; 3' idT; purified recombinant protein; label: DyLight 650 (5' maleimide)

## AGGCCGCCUCGCGCGGAGGGGUUUCAUUAUCCCGUUUGGCGGCUU [Aptamer 49]
[1]; SP3 spacer at position 11 between parts
  functional effect of the aptamer (fold worse than Aptamer 26): > 100

## AGGCCGCCUCCGCGCGGAGGGGUUUCAUUACCCGUUUGGCGGCUU [Aptamer 69]
[1]; SP3 spacer at position 31 between parts
  functional effect of the aptamer (fold worse than Aptamer 26): > 100

## AGGCCGCCUCCGCGCGGAGGGGUUUCAUUAUCCCUUUGGCGGCUU [Aptamer 73]
[1]; SP3 spacer at position 35 between parts
  functional effect of the aptamer (fold worse than Aptamer 26): > 100

## AGGCCGCCUCCGCGCGGAGGGGUUUCAUUAUCCCGUUGGCGGCUU [Aptamer 74]
[1]; SP3 spacer at position 36 between parts
  functional effect of the aptamer (fold worse than Aptamer 26): > 100

## AGGCCGCCUCCGCCGGAGGGGUUUCAUUAUCCCGUUUGGCGGCUU [Aptamer 52]
[1]; SP3 spacer at position 14 between parts
  functional effect of the aptamer (fold worse than Aptamer 26): > 100

## AGGCCGCCUCCCGCGGAGGGGUUUCAUUAUCCCGUUUGGCGGCUU [Aptamer 50]
[1]; SP3 spacer at position 12 between parts
  functional effect of the aptamer (fold worse than Aptamer 26): > 100

## AGGCCGCCUCCGCGCGGGGGGUUUCAUUAUCCCGUUUGGCGGCUU [Aptamer 56]
[1]; SP3 spacer at position 18 between parts
  functional effect of the aptamer (fold worse than Aptamer 26): > 100

## AGGCCGCCUCCGCGCGGAGGGUUUCAUUAUCCCGUUUGGCGGCUU [Aptamer 59]
[1]; SP3 spacer at position 21 between parts
  functional effect of the aptamer (fold worse than Aptamer 26): > 100

## AGGCCGCCUCCGCGCGGAGGGGUUUCAUUAUCCCGUUUGGCGGCUU [Aptamer 4.2 (r7-01)]
[2]
  binding result: binds

## AGGCCGCCUCCGCGGGAGGGGUUUCAUUAUCCCGUUUGGCGGCUU [Aptamer 53]
[1]; SP3 spacer at position 15 between parts
  functional effect of the aptamer (fold worse than Aptamer 26): > 100

## AGGCCGCCUCCGCGCGGAGGGGUUUCAUUAUCCGUUUGGCGGCUU [Aptamer 72]
[1]; SP3 spacer at position 34 between parts
  functional effect of the aptamer (fold worse than Aptamer 26): > 100

## AGGCCGCCUCCGCGCGAGGGGUUUCAUUAUCCCGUUUGGCGGCUU [Aptamer 54]
[1]; SP3 spacer at position 16 between parts
  functional effect of the aptamer (fold worse than Aptamer 26): > 100

## AGGCCGCCUCCGCGCGAGGGGUUUCAUUAUCCCGUUUGGCGGCUU [Aptamer 55]
[1]; SP3 spacer at position 17 between parts
  functional effect of the aptamer (fold worse than Aptamer 26): > 100

## AGGCCGCCUCCGGCGGAGGGGUUUCAUUAUCCCGUUUGGCGGCUU [Aptamer 51]
[1]; SP3 spacer at position 13 between parts
  functional effect of the aptamer (fold worse than Aptamer 26): > 100

## AGGCCGCCUCCGCGCGGAGGGGUUUCAUUAUCCCGUUGGCGGCUU [Aptamer 76]
[1]; SP3 spacer at position 38 between parts
  functional effect of the aptamer (fold worse than Aptamer 26): > 100

## AGGCCGCCUCCGCGCGGAGGGGUUUCAUUAUCCGUUUGGCGGCUU [Aptamer 71]
[1]; SP3 spacer at position 33 between parts
  functional effect of the aptamer (fold worse than Aptamer 26): > 100
